# According to PubChem BioAssay (NCATS):
# Inconclusive means that the source gave no clear call. Such entries were picked first, then a sample of the others. A potency beside an inconclusive call is a rough fit, not a confirmed value. Active and inactive are the calls of the source. The call rests on the fitted dose curve; in most records, active means well fitted cell-killing curve with a large enough effect; inconclusive means small, poorly fitted or top-dose-only effect, or effect the other way; inactive means no such curve, though single readings can be large or run the other way.
# Legend:
# [1] = Quantitative High-Throughput drug screen in 47 multiple myeloma cell lines against the NCATS MIPE library collection: KHM11_PLB cell viability assay (AID 1918962); conditions: KHM11 myeloma cell viability, CellTiter-Glo ATP luminescence, 48 h; viability, % of DMSO control: at 45.8 µM (top of the series) unless noted; further: nearly all actives have a fitted effect of over 35% in size
# Summary of the method: (§1)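 Relative luminescence from CellTiter-Glo served as the viability signal, referenced to DMSO-treated (100%) and cell-free medium (0%) controls. Treatment lasted 48 hours at 37C with 500 cells per well.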
# [2] = Quantitative High-Throughput drug screen in 47 multiple myeloma cell lines against the NCATS MIPE library collection: JIM1_ECACC cell viability assay (AID 1918964); conditions: JIM1 myeloma viability, CellTiter-Glo ATP luminescence, 48 h; viability (% of DMSO): at 45.8 µM (top of the series)
# Summary of the method: (§2)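 CellTiter-Glo ATP luminescence gave viability after 48 h compound treatment at 37C of 500 multiple myeloma cells per well. Normalisation used DMSO-only wells as 100% and media-only wells as 0% viability; primary qHTS of approved and investigational drugs.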
# [3] = Quantitative High-Throughput drug screen in 47 multiple myeloma cell lines against the NCATS MIPE library collection: INA6_PLB cell viability assay (AID 1918965; further: nearly all actives have a fitted effect of over 55% in size); conditions: INA6 myeloma viability, CellTiter-Glo ATP luminescence, 48 h; viability (% of control): at 45.8 µM (top of the series) unless noted
# Summary of the method: as §1
# [4] = Quantitative High-Throughput drug screen in 47 multiple myeloma cell lines against the NCATS MIPE library collection: JJN3_DSMZ cell viability assay (AID 1918966; further: nearly all actives have a fitted effect of over 50% in size)
# Summary of the method: as §2
# [5] = Quantitative High-Throughput drug screen in 47 multiple myeloma cell lines against the NCATS MIPE library collection: Karpas25_ECACC cell viability assay (AID 1918968; further: nearly all actives have a fitted effect of over 35% in size)
# Summary of the method: as §2
# [6] = Quantitative High-Throughput drug screen in 47 multiple myeloma cell lines against the NCATS MIPE library collection: KMS27_JCRB cell viability assay (AID 1918970); conditions: KMS27 myeloma cells, CellTiter-Glo ATP viability, 48 h; viability (% of DMSO): at 45.8 µM (top of the series); further: nearly all actives have a fitted effect of over 30% in size
# Summary of the method: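 CellTiter-Glo luminescence after 48 h drug exposure at 37 °C; 500 cells/well, 1536-well format, pin-tool compound addition; DMSO = 100%, media-only = 0% viability.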
# [7] = Quantitative High-Throughput drug screen in 47 multiple myeloma cell lines against the NCATS MIPE library collection: KMS12BM_JCRB cell viability assay (AID 1918971); conditions: KMS12BM myeloma viability, CellTiter-Glo ATP, 48 h; viability, % of DMSO: at 45.8 µM (top of the series); further: nearly all actives have a fitted effect of over 35% in size
# Summary of the method: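 qHTS of the MIPE 4.0 collection: 500 myeloma cells/well, 48 h drug exposure at 37C in 5% CO2, then CellTiter-Glo for 5 min at room temperature before luminescence reading.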
# [8] = Quantitative High-Throughput drug screen in 47 multiple myeloma cell lines against the NCATS MIPE library collection: KMS12PE_JCRB cell viability assay (AID 1918972); conditions: KMS12PE myeloma viability, CellTiter-Glo ATP, 48 h; viability: at 45.8 µM (top of the series); further: nearly all actives have a fitted effect of over 30% in size
# Summary of the method: as §1
# [9] = Quantitative High-Throughput drug screen in 47 multiple myeloma cell lines against the NCATS MIPE library collection: H1112_PLB cell viability assay (AID 1918967; further: nearly all actives have a fitted effect of over 30% in size)
# Summary of the method: as §2
# Potency means the concentration at half of the fitted maximal effect.
structure (smiles),measurement,setting,value
COc1ccc(CC2c3cc(OC)c(OC)cc3CC[N+]2(C)CCC(=O)OCCCCCOC(=O)CC[N+]2(C)CCc3cc(OC)c(OC)cc3C2Cc2ccc(OC)c(OC)c2)cc1OC (configuration not stated),"viability, % of DMSO control",[1],inactive: 95.7% [at 5.15 µM]
same,viability (% of DMSO),[2],inactive: 83.6% [at 5.15 µM]
same,Potency,[3],"inconclusive: 2.92 µM [cytotoxic, partial curve, poor fit]"
same,Potency,[4],inconclusive: 0.0003 µM
same,viability (% of control),[5],inactive: 100% [at 5.15 µM]
same,viability (% of DMSO),[6],inactive: 108% [at 5.15 µM]
same,"viability, % of DMSO",[7],inactive: 113% [at 5.15 µM]
same,Potency,[8],inconclusive: 0.0003 µM
CCOc1cc(N)c(Cl)cc1C(=O)NCC1CN(Cc2ccc(F)cc2)CCO1 (configuration not stated),Potency,[1],"inconclusive: 0.264 µM [rising, full curve]"
same,Potency,[2],"inconclusive: 0.0053 µM [rising, full curve, poor fit]"
same,Potency,[3],"inconclusive: 37.2 µM [cytotoxic, single point]"
same,Potency,[4],inactive
same,Potency,[5],inactive
same,Potency,[6],inactive
same,Potency,[7],"inconclusive: 0.0012 µM [rising, full curve, poor fit]"
C=C[C@@H]1CN2CCC1C[C@H]2[C@H](O)c1ccnc2ccc(OC)cc12 (some centres not stated),Potency,[1],"inconclusive: 0.264 µM [rising, full curve, poor fit]"
same,Potency,[2],"inconclusive: 0.0296 µM [cytotoxic, full curve, poor fit]"
same,Potency,[3],"inconclusive: 37.2 µM [cytotoxic, single point]"
same,Potency,[4],"inconclusive: 0.0148 µM [rising, full curve, poor fit]"
same,Potency,[5],"inconclusive: 33.2 µM [cytotoxic, single point]"
same,Potency,[6],inactive
same,Potency,[7],inactive
same,Potency,[8],"inconclusive: 20.9 µM [cytotoxic, partial curve]"
C[C@@]12C[C@@]3(O)O[C@@H](O1)[C@]1(COC(=O)c4ccccc4)[C@@H]3C[C@@]12O[C@@H]1O[C@H](CO)[C@@H](O)[C@H](O)[C@@H]1O,Potency,[1],inactive
same,Potency,[2],inactive
same,Potency,[3],"inconclusive: 0.0743 µM [rising, full curve, poor fit]"
same,Potency,[4],"inconclusive: 0.0012 µM [rising, full curve, poor fit]"
same,Potency,[5],inactive
same,Potency,[6],inactive
same,Potency,[7],"inconclusive: 0.0093 µM [rising, full curve, poor fit]"
same,Potency,[8],inconclusive: 0.001 µM
C[C@@H]1[C@H](C)CC[C@]2(C(=O)O)CC[C@]3(C)C(=CC[C@@H]4[C@@]5(C)CC[C@H](O)C(C)(C)[C@H]5CC[C@]43C)[C@@H]12,Potency,[1],inactive
same,Potency,[2],"inconclusive: 17.1 µM [rising, partial curve, poor fit]"
same,Potency,[3],"inconclusive: 9.59 µM [cytotoxic, partial curve, poor fit]"
same,Potency,[4],"inconclusive: 24.1 µM [cytotoxic, partial curve, poor fit]"
same,Potency,[6],inactive
same,Potency,[8],"inconclusive: 15.2 µM [cytotoxic, partial curve, poor fit]"
COc1cc2c(cc1OC)C1CC(=O)C(CC(C)C)CN1CC2 (configuration not stated),Potency,[1],inactive
same,Potency,[2],inactive
same,Potency,[3],"inconclusive: 20.9 µM [cytotoxic, partial curve, poor fit]"
same,Potency,[4],"inconclusive: 1.66 µM [cytotoxic, full curve, poor fit]"
same,Potency,[6],inactive
same,Potency,[7],"inconclusive: 16.6 µM [cytotoxic, partial curve, poor fit]"
same,Potency,[8],"inconclusive: 20.9 µM [cytotoxic, partial curve, poor fit]"
Nc1ccc(S(=O)(=O)Nc2ccccn2)cc1,Potency,[1],"inconclusive: 0.0264 µM [rising, full curve, poor fit]"
same,Potency,[2],"inconclusive: 0.332 µM [rising, partial curve, poor fit]"
same,Potency,[3],inactive
same,Potency,[4],"inconclusive: 0.0132 µM [rising, full curve, poor fit]"
same,Potency,[5],"inconclusive: 0.0118 µM [rising, full curve, poor fit]"
same,Potency,[6],inactive
same,Potency,[7],"inconclusive: 4.18 µM [rising, partial curve, poor fit]"
CC[C@H](C)C(=O)O[C@H]1C[C@H](O)C=C2C=C[C@H](C)[C@H](CC[C@@H](O)C[C@@H](O)CC(=O)O)[C@H]21,Potency,[1],inactive
same,Potency,[2],inactive
same,Potency,[3],inactive
same,Potency,[4],inactive
same,Potency,[6],"inconclusive: 7.43 µM [cytotoxic, partial curve, poor fit]"
same,Potency,[7],inactive
Clc1ccc2c(N3CCN(CCCN4CCN(c5ccnc6cc(Cl)ccc56)CC4)CC3)ccnc2c1,Potency,[1],"inconclusive: 4.57 µM [rising, partial curve]"
same,Potency,[2],"inconclusive: 0.0288 µM [rising, full curve, poor fit]"
same,Potency,[3],inactive
same,Potency,[4],inactive
same,Potency,[5],inactive
same,Potency,[7],inactive
same,Potency,[8],"inconclusive: 6.45 µM [rising, partial curve]"
CCCCCN(CCC12CC3CC(CC(C3)C1)C2)C(=O)NCCCc1ccncc1,Potency,[1],"inconclusive: 37.2 µM [cytotoxic, single point]"
same,Potency,[2],"inconclusive: 4.18 µM [cytotoxic, full curve, poor fit]"
same,Potency,[3],active: 16.6 µM
same,Potency,[4],"inconclusive: 18.7 µM [cytotoxic, partial curve, poor fit]"
same,Potency,[5],"inconclusive: 33.2 µM [cytotoxic, single point]"
same,Potency,[7],active: 26.4 µM
same,Potency,[8],active: 4.69 µM
OC[C@H]1OC(O)C[C@@H](O)[C@H]1O (some centres not stated),Potency,[1],"inconclusive: 5.26 µM [rising, partial curve, poor fit]"
same,Potency,[2],"inconclusive: 0.0012 µM [rising, full curve, poor fit]"
same,Potency,[3],inconclusive: 0.001 µM
same,Potency,[4],"inconclusive: 10.5 µM [rising, single point]"
same,Potency,[5],"inconclusive: 0.0019 µM [rising, full curve, poor fit]"
same,Potency,[7],"inconclusive: 0.0033 µM [rising, full curve, poor fit]"
same,Potency,[8],"inconclusive: 0.0118 µM [rising, full curve, poor fit]"
Fc1ccc([C@@H]2CCNC[C@H]2COc2ccc3c(c2)OCO3)cc1,Potency,[1],"inconclusive: 11.8 µM [cytotoxic, partial curve, poor fit]"
same,Potency,[2],"inconclusive: 0.0033 µM [cytotoxic, full curve, poor fit]"
same,Potency,[3],"inconclusive: 37.2 µM [cytotoxic, single point]"
same,Potency,[5],inactive
same,Potency,[6],"inconclusive: 0.0296 µM [cytotoxic, full curve, poor fit]"
same,Potency,[8],inactive
CS(=O)(=O)Nc1ccc([N+](=O)[O-])cc1Oc1ccccc1,Potency,[1],inactive
same,Potency,[2],inconclusive: 0.001 µM
same,Potency,[4],"inconclusive: 18.7 µM [cytotoxic, partial curve, poor fit]"
same,Potency,[9],"inconclusive: 16.6 µM [cytotoxic, partial curve, poor fit]"
same,Potency,[5],"inconclusive: 18.7 µM [cytotoxic, partial curve]"
Nc1ccc(S(=O)(=O)Nc2ncccn2)cc1,Potency,[1],"inconclusive: 0.0235 µM [rising, full curve, poor fit]"
same,Potency,[2],"inconclusive: 0.0012 µM [rising, full curve, poor fit]"
same,Potency,[3],inactive
same,Potency,[9],"inconclusive: 0.0148 µM [rising, full curve, poor fit]"
same,Potency,[5],inactive
same,Potency,[6],inactive
same,Potency,[7],inactive
CC1(C)OC2CC3C4CC(F)C5=CC(=O)C=CC5(C)C4C(O)CC3(C)[C@]2(C(=O)CO)O1 (some centres not stated),Potency,[1],"inconclusive: 0.0935 µM [rising, full curve]"
same,Potency,[2],"inconclusive: 2.96 µM [cytotoxic, full curve, poor fit]"
same,Potency,[3],inactive
same,Potency,[4],inactive
same,Potency,[7],"inconclusive: 7.43 µM [rising, partial curve, poor fit]"
same,Potency,[8],"inconclusive: 0.0743 µM [cytotoxic, full curve, poor fit]"
CCOC(=O)C1=C(C)NC(=S)NC1c1cccc(O)c1 (configuration not stated),Potency,[1],"inconclusive: 0.0332 µM [cytotoxic, full curve, poor fit]"
same,Potency,[2],active: 0.296 µM
same,Potency,[4],"inconclusive: 0.332 µM [cytotoxic, full curve, poor fit]"
same,Potency,[9],"inconclusive: 0.0296 µM [cytotoxic, full curve]"
CC[C@H](CC[C@@H](C)[C@H]1CC[C@H]2[C@@H]3CC=C4C[C@@H](O)CC[C@]4(C)[C@@H]3CC[C@]12C)C(C)C,Potency,[1],inactive
same,Potency,[2],"inconclusive: 0.0019 µM [cytotoxic, full curve, poor fit]"
same,Potency,[3],"inconclusive: 0.0093 µM [cytotoxic, full curve, poor fit]"
same,Potency,[6],"inconclusive: 18.7 µM [cytotoxic, partial curve, poor fit]"
same,Potency,[8],"inconclusive: 0.105 µM [cytotoxic, full curve, poor fit]"
CN(C)CCCNC(=O)c1ccc(-c2cc(O)c3ncccc3c2)cc1,Potency,[1],"inconclusive: 37.2 µM [cytotoxic, single point]"
same,Potency,[2],"inconclusive: 8.33 µM [cytotoxic, partial curve, poor fit]"
same,Potency,[4],active: 20.9 µM
same,Potency,[9],"inconclusive: 23.5 µM [cytotoxic, single point]"
same,Potency,[5],active: 18.7 µM
same,Potency,[6],"inconclusive: 20.9 µM [cytotoxic, partial curve, poor fit]"
COC(=O)[C@H](c1ccccc1Cl)N1CCc2sccc2C1,Potency,[1],"inconclusive: 37.2 µM [cytotoxic, single point]"
same,Potency,[2],"inconclusive: 0.0053 µM [rising, full curve, poor fit]"
same,Potency,[3],"inconclusive: 37.2 µM [cytotoxic, single point]"
same,Potency,[5],"inconclusive: 29.6 µM [cytotoxic, single point]"
same,Potency,[6],"inconclusive: 18.7 µM [cytotoxic, partial curve]"
same,Potency,[7],inactive
same,Potency,[8],"inconclusive: 23.5 µM [cytotoxic, single point]"
CC(O)C1C(=O)N2C(C(=O)O)=C(SC3CNC(C(=O)N(C)C)C3)C(C)C12 (configuration not stated),Potency,[1],inactive
same,Potency,[2],"inconclusive: 9.35 µM [rising, full curve, poor fit]"
same,Potency,[3],inactive
same,Potency,[4],"inconclusive: 0.0296 µM [rising, full curve, poor fit]"
same,Potency,[8],"inconclusive: 0.0833 µM [rising, full curve, poor fit]"
Nc1ccc(C(=O)c2cc3c(ccc4ccccc43)[nH]2)cc1,Potency,[1],"inconclusive: 0.148 µM [cytotoxic, full curve, poor fit]"
same,Potency,[2],"inconclusive: 1.32 µM [cytotoxic, partial curve, poor fit]"
same,Potency,[3],active: 2.64 µM
same,Potency,[9],"inconclusive: 11.8 µM [cytotoxic, partial curve]"
same,Potency,[6],"inconclusive: 6.62 µM [cytotoxic, partial curve, poor fit]"
same,Potency,[8],"inconclusive: 0.935 µM [cytotoxic, partial curve, poor fit]"
Nc1c2c(nc3ccccc13)CCCC2,Potency,[1],"inconclusive: 0.105 µM [rising, full curve, poor fit]"
same,Potency,[2],inactive
same,Potency,[3],"inconclusive: 0.118 µM [rising, full curve, poor fit]"
same,Potency,[9],inactive
same,Potency,[5],inactive
same,Potency,[6],inactive
same,Potency,[7],"inconclusive: 4.18 µM [cytotoxic, full curve, poor fit]"

# 2 entries from above, reformatted.
structure (smiles)	measurement	setting	value
COc1cc2c(cc1OC)C1CC(=O)C(CC(C)C)CN1CC2 (configuration not stated)	Potency	[7]	inconclusive: 16.6 µM [cytotoxic, partial curve, poor fit]
same	Potency	[8]	inconclusive: 20.9 µM [cytotoxic, partial curve, poor fit]
